# Data taken from publication PMC12998938, “Neutrophil store-operated Ca^2+ entry: A correctable biomarker of cystic fibrosis lung disease progression” (Journal of cystic fibrosis : official journal of the …, 2025).
# Tested on: SOCE in CF neutrophils vs FEV1pp
# Assay: Correlation of thapsigargin-induced Ca2+ response with lung function (FEV1pp)
# Set-up: species or system human
# Settings: pwCF, linear regression
molecule,measurement,setting,value
"C/C=C(/C)C(=O)O[C@H]1C(C)=C2[C@H]([C@@H]1OC(=O)CCCCCCC)[C@@](C)(OC(C)=O)C[C@H](OC(=O)CCC)[C@@]1(O)[C@H]2OC(=O)[C@@]1(C)O [thapsigargin, reference compound]",correlation of peak thapsigargin-induced Ca2+ entry with FEV1pp,Fig. 5B,significant inverse correlation with lung function
"VHDIVNMLIRG [ELD607, size-optimized SPLUNC1/α6 peptidomimetic]",correlation of ELD607-sensitive Ca2+ influx with FEV1pp,Fig. 5D,inversely correlated against FEV1pp
same,correlation of ELD607-insensitive fraction with FEV1pp,Fig. 5F,did not significantly correlate with lung function
